The text below walks through data of the supplement of paper PMC6331611.

Several values for one entry are separate records, joined by “and”; a condition that tells them apart may be missing. Equal values may be shown once. ± gives the standard deviation of the averaged measurements. Whole data set: some 1,600 compounds, median “normalized intracellular growth (luminescence, IQM-normalized) in RAW264.7 macrophages” near 1, cut for the lowest 2% near 0.43. This is one part of the list.

The assay deals with Salmonella enterica serovar Typhimurium SL1344. As to the kind of experiment: normalized intracellular growth (luminescence, IQM-normalized) in RAW264.7 macrophages (fraction of plate interquartile mean); higher = more bacterial growth (less inhibition). To be noted: 10 µM.

On to `COc1ccc2cc1Oc1ccc(cc1)C[C@H]1c3c(cc4c(c3Oc3cc5c(cc3OC)CCN(C)[C@@H]5C2)OCO4)CCN1C`, for which the normalized intracellular growth was 0.485 ± 0.17 (time point: T3 (3 h)) and 0.75 ± 0.025 (time point: Tfinal (~6 h)).

`CCOC(=O)c1ccc(O)cc1`: the normalized intracellular growth is, setting by setting: (time point: T3 (3 h)) 1.01 ± 0.069; (time point: Tfinal (~6 h)) 0.638 ± 0.09.

With `CC1CCc2cc(F)cc3c(=O)c(C(=O)O)cn1c23` (centres undefined), the normalized intracellular growth was determined as 0.937 ± 0.026 (time point: T3 (3 h)) and 0.389 ± 0.025 (time point: Tfinal (~6 h)).

As for `CCCCOc1ccc(OCCCN2CCOCC2)cc1`, the normalized intracellular growth runs as follows: (time point: T3 (3 h)) 1.08 ± 0.075; (time point: Tfinal (~6 h)) 0.935 ± 0.094.

For `CC(C)[C@H]1CC[C@H](C(=O)N[C@H](Cc2ccccc2)C(=O)O)CC1`, the normalized intracellular growth is 0.94 ± 0.19 (time point: T3 (3 h)) and 1 ± 0.06 (time point: Tfinal (~6 h)).

Turning to `CC(=O)Oc1cccc(C(=O)O)c1OC(C)=O`, the normalized intracellular growth (time point: T3 (3 h)) turned out to be 1.01 ± 0.04 and the normalized intracellular growth (time point: Tfinal (~6 h)) turned out to be 0.915 ± 0.16.

Take `CC(C)c1nc(CN(C)C(=O)N[C@H](C(=O)N[C@@H](Cc2ccccc2)C[C@H](O)[C@H](Cc2ccccc2)NC(=O)OCc2cncs2)C(C)C)cs1`: the normalized intracellular growth (time point: T3 (3 h)) was found to be 0.997 ± 0.012 and the normalized intracellular growth (time point: Tfinal (~6 h)) was 1.22 ± 0.048.

In the case of `COc1ccccc1OCCNCC(O)COc1cccc2[nH]c3ccccc3c12` (centres undefined), the normalized intracellular growth is, setting by setting: (time point: T3 (3 h)) 1 and 1.02; (time point: Tfinal (~6 h)) 1.25 and 1.09.

As for `S=P(N1CC1)(N1CC1)N1CC1`, the normalized intracellular growth (time point: T3 (3 h)) came to 1.01 ± 0.023 and the normalized intracellular growth (time point: Tfinal (~6 h)) is 1.07 ± 0.31.

For the molecule `CCN1CCCC1CNC(=O)c1cc(S(=O)(=O)CC)c(N)cc1OC` (centres undefined), the normalized intracellular growth (time point: T3 (3 h)) was found to be 1.13 ± 0.045 and the normalized intracellular growth (time point: Tfinal (~6 h)) stood at 0.959 ± 0.091.

In the case of `Nc1nc(N)nc(-c2cc(Cl)ccc2Cl)n1`, the normalized intracellular growth is, setting by setting: (time point: T3 (3 h)) 1.05 ± 0.041; (time point: Tfinal (~6 h)) 0.97 ± 0.21.

As for `CC(CN1c2ccccc2Sc2ccccc21)N(C)C` (centres undefined), the normalized intracellular growth reads like this: (time point: T3 (3 h)) 0.846 ± 0.036; (time point: Tfinal (~6 h)) 1.19 ± 0.077.

As for `NS(=O)(=O)c1cc2c(cc1C(F)(F)F)NC(Cc1ccccc1)NS2(=O)=O` (centres undefined), the normalized intracellular growth was 1.06 ± 0.051 (time point: T3 (3 h)) and 0.984 ± 0.01 (time point: Tfinal (~6 h)).

With `O=C(c1ccc(OCCN2CCCCC2)cc1)c1c(-c2ccc(O)cc2)sc2cc(O)ccc12`, the normalized intracellular growth by setting is: (time point: T3 (3 h)) 1.05 ± 0.084; (time point: Tfinal (~6 h)) 0.901 ± 0.19.

In the case of `CCn1cc(C(=O)O)c(=O)c2cc(F)c(N3CCNCC3)cc21`, the normalized intracellular growth is, setting by setting: (time point: T3 (3 h)) 1.07 ± 0.028; (time point: Tfinal (~6 h)) 1.19 ± 0.029.

In the case of `CCOC(=O)C1=C(C)NC(C)=C(C(=O)OC)C1c1cccc([N+](=O)[O-])c1` (centres undefined), the normalized intracellular growth (time point: T3 (3 h)) amounted to 0.984 ± 0.069 and the normalized intracellular growth (time point: Tfinal (~6 h)) was 1.11 ± 0.26.

Regarding `CC1(C)S[C@@H]2[C@H](N3C(=O)[C@@H](c4ccccc4)NC3(C)C)C(=O)N2[C@H]1C(=O)O`, the normalized intracellular growth runs as follows: (time point: T3 (3 h)) 1 ± 0.031; (time point: Tfinal (~6 h)) 0.974 ± 0.056.
